Structures can show the parent of a compound that is named as a salt.
Target: human CYP2C19 (Homo sapiens, UniProt P33261)

Protein sequences, listed by entry. Tags and fused reporters are not part of them.
UniProt P33261, whole entry: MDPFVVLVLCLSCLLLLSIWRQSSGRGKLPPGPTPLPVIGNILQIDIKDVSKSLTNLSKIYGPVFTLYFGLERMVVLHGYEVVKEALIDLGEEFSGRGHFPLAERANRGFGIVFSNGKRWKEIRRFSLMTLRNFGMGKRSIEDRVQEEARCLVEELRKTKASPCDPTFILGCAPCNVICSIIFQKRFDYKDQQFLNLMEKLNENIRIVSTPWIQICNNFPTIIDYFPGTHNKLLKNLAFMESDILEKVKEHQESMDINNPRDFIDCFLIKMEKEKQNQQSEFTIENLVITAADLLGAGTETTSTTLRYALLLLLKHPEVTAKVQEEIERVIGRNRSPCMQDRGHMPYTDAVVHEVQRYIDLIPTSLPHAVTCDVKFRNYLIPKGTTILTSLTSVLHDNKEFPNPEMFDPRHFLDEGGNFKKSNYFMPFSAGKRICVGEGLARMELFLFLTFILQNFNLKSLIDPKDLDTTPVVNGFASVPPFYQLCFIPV

For COc1cc2c(cc1OC)C(=O)C(CC1CCN(Cc3ccccc3)CC1)C2 (stereo not shown) [Donepezil hydrochloride], the “CYP2C19 AC50 (half-maximal activity concentration)” value was “Inconclusive activator”.

Source: article PMC12155096 (International Journal of Molecular Sciences, 2025)
